These are yes or no findings as the source states them, for the method shown. Binding seen in cells or lysates may run through a third protein. Some results given as binding are weak or reduced against the parent protein; the word gives no strength. Where a sequence is shown, tags or fusion partners need not be part of it.
Molecular target: bio-mCherry-UNC-119 (C. elegans) (UniProt Q10658)
Assay: pull-down

Amino acid sequences for entries named in this document (tags omitted).
UniProt Q10658: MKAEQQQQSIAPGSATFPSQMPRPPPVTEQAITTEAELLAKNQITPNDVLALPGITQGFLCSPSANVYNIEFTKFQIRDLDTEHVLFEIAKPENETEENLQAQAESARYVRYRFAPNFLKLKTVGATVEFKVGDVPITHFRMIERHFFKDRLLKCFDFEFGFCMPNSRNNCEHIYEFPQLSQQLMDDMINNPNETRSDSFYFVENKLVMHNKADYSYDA

binding: binds
B1: UNC-33L::GFP (protein, UniProt Q01630 1-854)
chain: MFPFLAPIRSANHVEQQGTKYYVEITFLADSPYSRAPSSTGTEKSVIPTLRNLDDLETVSNKSRSSEGVNKLGSRPNSRSSAIVKKTSVSSLPTSARSEGKSSPIPVKDAIPAPARHKNKGLEMSSAMMELFGGGGSTSPAPSKRENPADAPSDRVVSNAKLSQPGPEWFEGFEQMDMTDIELPPDPNCPAEKVLRGEKSTPDFDSDWQEAKEDVLDPQSYPKSFNPAESLPGPDIGAGVDDEEEPEAEAQEMEEPQYESKVDEKDDDDNGSSSSKKGHPSEDGDSTRNGETPTDRRNSGAIEETADGESSAQSAAEKKNSGDDGNGGGGEMSILLVKNAQIVNDDAIFVADILIEDGIIQNVAPNLEAPEGAEVLDAAGKLALPAGIDVYTQVTDSSVDDLSTGCKSAIAGGTGTIVEVVRPRGAESVVSAVKRVKNQLEKSGISCHVALSVAITDFCEQEMSELVKNEGINSFVLDGVSLTDDKLLELFEHVKRLGALIRVVPENKSIVAMLEKKMLKLGVTGPEGFPQSRPESLEADRVSGVCVLGNLASCPISIVQVSSADSLAAIEKARASGALAHAEIASAAVTADGSALFSQDLRFASAHLTDVPLRRGAPDRMIGALSTQPLVVCTSGHRPVNSATRVAAKDFAIAQKGSTGAEERMAVVWERAVRSGRIDAMRFVAVTSTNAAKMFNMYPKKGRIAVGADADLVIWDASGKRVLESSRAQSSQENSMYDGLTVHSVVTATIVGGKIAYQNGEVREAPVAGGFLRLSPNSPYLFSMVGQRDKFANVERVEREASSQQQKPQQNGHHKNSGDFDRNRTKVMESSIDFGGSAANRPRNPPGGRTTGFW
